Source: PubChem BioAssay AID1224826 (NIAID, 2016)
Aim: 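Genes that change LPS-induced Tnf promoter activity in mouse macrophages when knocked down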 (primary screen). Cell system: RAW264.7 G9 macrophages from mouse bearing reporters for p65 (GFP) and the Tnf promoter (mCherry). Reagent: siRNA pool against mouse genes, 100 nM. Duration: 16 h of LPS stimulation, after 2 days of siRNA transfection. Treatment: bacterial lipopolysaccharide (Salmonella minnesota R595), 10 ng/ml. Detection: 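Nuclear mCherry signal of the Tnf promoter reporter measured by imaging after background removal, scaled to each plate median and turned into robust z-scores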. Scale: Tnf reporter robust z-score: higher = stronger Tnf promoter reporter signal after LPS; Tnf reporter intensity: higher = stronger Tnf promoter reporter signal. Call rule: 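a well counts as active at a score of -1.3 or below (Tlr4 knock-down control median) or above 3 (raised signal); controls and wells holding fewer than 50 cells are excluded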. Meaning of the calls: active = Tnf reporter clearly lowered or raised; inactive = no clear change in Tnf reporter.
Here is an unselected part of about 17,000 reagents tested. In the full data, about 1,110 (6.6%) got an active call. 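Active means lowered or raised reporter signal; replicate intensities are raw and not normalised per plate.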

| target | Tnf reporter robust z-score | fewer than 50 cells in well | Tnf reporter intensity, replicate 1 | Tnf reporter intensity, replicate 2 | activity call |
| --- | --- | --- | --- | --- | --- |
| Or8c15 (olfactory receptor family 8 subfamily C member 15) | 1.5 | enough cells in well | 161 | 162 | inactive |
| Gm10033 (predicted gene 10033) | -0.05 | enough cells in well | 186 | 176 | inactive |
| Kif20a (kinesin family member 20A) | 0.23 | enough cells in well | 268 | 155 | inactive |
| Srsf1 (serine and arginine-rich splicing factor 1) | – | fewer than 50 cells per well; well left out of calls | 60.9 | 52.8 | inactive |
| Pcdh12 (protocadherin 12) | -0.45 | enough cells in well | 237 | 129 | inactive |
| Epx (eosinophil peroxidase) | -0.1 | enough cells in well | 242 | 200 | inactive |
| Atxn3 (ataxin 3) | -0.57 | enough cells in well | 230 | 151 | inactive |
| Serpinb1c (serine (or cysteine) peptidase inhibitor, clade B, member 1c) | 0.82 | enough cells in well | 135 | 123 | inactive |
| Tmem179 (transmembrane protein 179) | 1.09 | enough cells in well | 302 | 238 | inactive |
| Fbxl21 (F-box and leucine-rich repeat protein 21) | 1.89 | enough cells in well | 338 | 240 | inactive |
| Eif4a2 (eukaryotic translation initiation factor 4A2) | -0.82 | enough cells in well | 159 | 67.5 | inactive |
| Acvr1 (activin A receptor, type 1) | -1.23 | enough cells in well | 120 | 88.2 | inactive |

A run of entries of the results above, as a working copy:
| target | Tnf reporter robust z-score | fewer than 50 cells in well | Tnf reporter intensity, replicate 1 | Tnf reporter intensity, replicate 2 | activity call |
| --- | --- | --- | --- | --- | --- |
| Serpinb1c (serine (or cysteine) peptidase inhibitor, clade B, member 1c) | 0.82 | enough cells in well | 135 | 123 | inactive |
| Tmem179 (transmembrane protein 179) | 1.09 | enough cells in well | 302 | 238 | inactive |

Additional reagents:
| target | Tnf reporter robust z-score | fewer than 50 cells in well | Tnf reporter intensity, replicate 1 | Tnf reporter intensity, replicate 2 | activity call |
| --- | --- | --- | --- | --- | --- |
| Krt81 (keratin 81) | -0.62 | enough cells in well | 200 | 111 | inactive |
| 9230106D20Rik (retired record) | – | fewer than 50 cells per well; well left out of calls | 239 | 160 | inactive |
| Or4f14d (olfactory receptor family 4 subfamily F member 14D) | 0.04 | enough cells in well | 172 | 129 | inactive |
| Or4p23 (olfactory receptor family 4 subfamily P member 23) | -0.62 | enough cells in well | 146 | 121 | inactive |
| Ptpn20 (protein tyrosine phosphatase, non-receptor type 20) | -0.34 | enough cells in well | 95.4 | 134 | inactive |
| Tcf7 (transcription factor 7, T cell specific) | 0.16 | enough cells in well | 244 | 80.1 | inactive |
| Atp2a2 (ATPase, Ca++ transporting, cardiac muscle, slow twitch 2) | -0.91 | enough cells in well | 96.6 | 108 | inactive |
| Tmem69 (transmembrane protein 69) | -0.31 | enough cells in well | 121 | 172 | inactive |
| Bcl2a1b (B cell leukemia/lymphoma 2 related protein A1b) | -0.19 | enough cells in well | 122 | 171 | inactive |
| Cc2d2a (coiled-coil and C2 domain containing 2A) | 0.17 | enough cells in well | 196 | 146 | inactive |
| B930095G15Rik (RIKEN cDNA B930095G15 gene) | 0.32 | enough cells in well | 224 | 235 | inactive |
| Rad18 (RAD18 E3 ubiquitin protein ligase) | 0.32 | enough cells in well | 349 | 223 | inactive |
